Data on 17 compounds can be found in the supplement of paper PMC4807443.

Counter-ions that a name gives are not always drawn. Some of the results follow. The numbers are fractions of the control, whatever unit the source prints. Most entries show no effect beyond the scatter of the controls.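 MIN6 is a mouse insulinoma beta-cell line that stably carries a lentiviral reporter in which the Pdx1 and Ins1 promoters each drive a nucleus-targeted fluorescent protein; cells were counted by automated imaging with a Hoechst nuclear stain. In the screen, a drug was a possible hit when its Ins1 promoter readout lay beyond two median absolute deviations from the DMSO controls while Pdx1 activity stayed near normal.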

This experiment relates to MIN6. Put plainly: % Pdx1+ Ins1+ (double-positive, mature) cells relative to DMSO control (fold of DMSO control); higher = more mature Ins1 promoter-active cells. Particulars: 8.5 µM; 48 h; glucose 5 mM.
Take `COc1cc(-c2ccc(=O)[nH]n2)ccc1OC(F)F` [Zardaverine]: the “% Pdx1+ Ins1+” value came to 0.862.

Turning to `O=c1cc(-c2ccc(O)cc2)oc2c([C@@H]3O[C@H](CO)[C@@H](O)[C@H](O)[C@H]3O)c(O)cc(O)c12` [Vitexin], the “% Pdx1+ Ins1+” value was 0.847.

On to `Cc1cc(-c2ccccc2)nnc1NCCN1CCOCC1` [Minaprine dihydrochloride], for which the “% Pdx1+ Ins1+” value was found to be 1.2.

Regarding `NC(N)=Nc1nc(CSCC/C(N)=N/S(N)(=O)=O)cs1` [Famotidine], the “% Pdx1+ Ins1+” value stood at 1.15.

Take `CC1=C(/C=C/C(C)=C/C=C/C(C)=C\C(=O)O)C(C)(C)CCC1` [Isotretinoin]: the “% Pdx1+ Ins1+” value is 1.14.

In the case of `CC/C(=C(/CC)c1ccc(O)cc1)c1ccc(O)cc1` [Diethylstilbestrol], the “% Pdx1+ Ins1+” value was 0.594.

`CSc1ccc2c(c1)N(CCC1CCCCN1C)c1ccccc1S2` (configuration not stated) [Thioridazine hydrochloride]: the “% Pdx1+ Ins1+” value was 1.09.

Consider `CN(C)[C@@H]1C(O)=C(C(N)=O)C(=O)[C@@]2(O)C(O)=C3C(=O)c4c(O)cccc4[C@@](C)(O)[C@H]3[C@H](O)[C@@H]12` [Oxytetracycline dihydrate], for which the “% Pdx1+ Ins1+” value came to 0.976.

With `COc1ccc(CC2c3cc(OC)c(OC)cc3CC[N+]2(C)CCC(=O)OCCCCCOC(=O)CC[N+]2(C)CCc3cc(OC)c(OC)cc3C2Cc2ccc(OC)c(OC)c2)cc1OC` (configuration not stated) [Atracurium besylate], the “% Pdx1+ Ins1+” value was 0.983.

As for `CC(=O)[C@H]1CC[C@H]2[C@@H]3CC=C4C[C@@H](O)CC[C@]4(C)[C@H]3CC[C@]12C` [Pregnenolone], the “% Pdx1+ Ins1+” value was 0.97.

With `CCCCN1CCCCC1C(=O)Nc1c(C)cccc1C` (configuration not stated) [Bupivacaine hydrochloride], the “% Pdx1+ Ins1+” value is 1.11.

With `CCOC(=O)NNc1nncc2ccccc12` [Todralazine hydrochloride], the “% Pdx1+ Ins1+” value was found to be 1.14.

`CC(C)(C)c1ccc(C(O)CCCN2CCC(C(O)(c3ccccc3)c3ccccc3)CC2)cc1` (configuration not stated) [Terfenadine]: the “% Pdx1+ Ins1+” value is 0.881.

Regarding `CC(COc1ccccc1)NC(C)C(O)c1ccc(O)cc1` (configuration not stated) [Isoxsuprine hydrochloride], the “% Pdx1+ Ins1+” value turned out to be 1.01.

On to `CC[C@@H](C(=O)[C@@H](C)[C@@H](O)[C@H](C)CCc1ccc(C)c(O)c1C(=O)O)[C@H]1O[C@](CC)([C@H]2CC[C@](O)(CC)[C@H](C)O2)C[C@@H]1C` [Lasalocid sodium salt], for which the “% Pdx1+ Ins1+” value turned out to be 0.544.

As to `CO[C@H]1C[C@H](O[C@H]2[C@H](C)[C@@H](O[C@@H]3O[C@H](C)C[C@H](N(C)C)[C@H]3O)[C@@H](C)C[C@@]3(CO3)C(=O)[C@H](C)[C@@H](O)[C@@H](C)[C@@H](C)OC(=O)[C@@H]2C)O[C@@H](C)[C@@H]1O` [Oleandomycin phosphate], the “% Pdx1+ Ins1+” value is 1.1.

As to `Nc1ccc(S(=O)(=O)Nc2ccccn2)cc1` [Sulfapyridine], the “% Pdx1+ Ins1+” value worked out at 0.84.
